Data as given in the supplement of paper PMC10849652.
The list shows a part of the results.

Chains of the proteins cited; added tags and fusions are not shown. Lines headed by an entry give the natural chain unless they say otherwise; changes in a name come on top.
UniProt O75964: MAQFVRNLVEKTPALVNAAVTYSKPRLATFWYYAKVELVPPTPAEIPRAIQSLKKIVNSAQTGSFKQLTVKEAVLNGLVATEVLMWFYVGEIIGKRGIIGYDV
UniProt Q2TAZ0: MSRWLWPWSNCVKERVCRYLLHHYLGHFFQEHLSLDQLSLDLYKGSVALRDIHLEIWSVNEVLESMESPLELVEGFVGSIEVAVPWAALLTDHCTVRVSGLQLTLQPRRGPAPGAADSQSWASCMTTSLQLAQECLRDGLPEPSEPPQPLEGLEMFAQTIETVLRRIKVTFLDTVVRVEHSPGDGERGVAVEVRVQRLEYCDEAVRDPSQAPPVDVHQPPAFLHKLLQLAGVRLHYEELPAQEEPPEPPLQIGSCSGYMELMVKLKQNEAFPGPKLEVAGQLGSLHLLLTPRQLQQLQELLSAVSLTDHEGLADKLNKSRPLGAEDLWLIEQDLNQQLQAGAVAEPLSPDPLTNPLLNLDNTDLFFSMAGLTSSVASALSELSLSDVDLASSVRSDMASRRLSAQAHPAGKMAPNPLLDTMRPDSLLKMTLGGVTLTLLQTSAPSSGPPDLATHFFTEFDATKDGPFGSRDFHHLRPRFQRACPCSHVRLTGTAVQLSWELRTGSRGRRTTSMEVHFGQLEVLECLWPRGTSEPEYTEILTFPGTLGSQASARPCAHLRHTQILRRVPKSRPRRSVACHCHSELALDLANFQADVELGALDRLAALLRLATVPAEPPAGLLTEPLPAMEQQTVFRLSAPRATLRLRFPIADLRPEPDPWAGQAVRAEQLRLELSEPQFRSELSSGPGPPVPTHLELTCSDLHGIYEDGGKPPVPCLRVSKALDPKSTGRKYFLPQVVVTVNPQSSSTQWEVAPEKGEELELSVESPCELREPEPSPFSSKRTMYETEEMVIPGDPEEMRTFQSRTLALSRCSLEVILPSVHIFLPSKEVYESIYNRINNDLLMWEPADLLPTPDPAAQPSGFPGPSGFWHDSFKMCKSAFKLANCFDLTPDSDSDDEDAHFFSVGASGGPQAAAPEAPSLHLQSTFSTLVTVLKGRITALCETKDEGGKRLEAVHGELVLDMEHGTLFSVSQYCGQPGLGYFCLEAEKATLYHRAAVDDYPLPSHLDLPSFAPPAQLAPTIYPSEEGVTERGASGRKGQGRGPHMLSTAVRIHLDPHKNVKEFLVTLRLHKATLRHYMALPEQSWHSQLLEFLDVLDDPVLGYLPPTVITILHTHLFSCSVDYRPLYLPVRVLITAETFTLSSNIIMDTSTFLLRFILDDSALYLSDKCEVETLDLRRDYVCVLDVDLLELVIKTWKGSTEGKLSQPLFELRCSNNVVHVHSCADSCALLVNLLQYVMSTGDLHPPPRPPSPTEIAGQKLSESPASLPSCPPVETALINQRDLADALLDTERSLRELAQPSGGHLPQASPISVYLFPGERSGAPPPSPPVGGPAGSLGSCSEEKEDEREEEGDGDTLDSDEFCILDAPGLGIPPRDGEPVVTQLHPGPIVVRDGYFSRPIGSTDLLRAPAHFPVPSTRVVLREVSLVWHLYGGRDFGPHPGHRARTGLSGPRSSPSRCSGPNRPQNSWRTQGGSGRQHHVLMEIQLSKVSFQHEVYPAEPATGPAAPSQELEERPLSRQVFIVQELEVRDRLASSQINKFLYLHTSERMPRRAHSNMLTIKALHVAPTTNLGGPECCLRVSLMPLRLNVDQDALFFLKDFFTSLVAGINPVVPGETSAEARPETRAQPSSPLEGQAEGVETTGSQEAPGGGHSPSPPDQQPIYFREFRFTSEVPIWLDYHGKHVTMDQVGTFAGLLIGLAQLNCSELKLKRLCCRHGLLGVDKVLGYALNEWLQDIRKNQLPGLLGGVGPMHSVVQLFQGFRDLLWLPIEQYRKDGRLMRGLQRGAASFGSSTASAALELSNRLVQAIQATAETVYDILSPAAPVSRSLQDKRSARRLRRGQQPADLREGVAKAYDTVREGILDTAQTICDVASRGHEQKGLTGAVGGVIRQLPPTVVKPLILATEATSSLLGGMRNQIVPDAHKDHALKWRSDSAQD
UniProt Q9Y4P1: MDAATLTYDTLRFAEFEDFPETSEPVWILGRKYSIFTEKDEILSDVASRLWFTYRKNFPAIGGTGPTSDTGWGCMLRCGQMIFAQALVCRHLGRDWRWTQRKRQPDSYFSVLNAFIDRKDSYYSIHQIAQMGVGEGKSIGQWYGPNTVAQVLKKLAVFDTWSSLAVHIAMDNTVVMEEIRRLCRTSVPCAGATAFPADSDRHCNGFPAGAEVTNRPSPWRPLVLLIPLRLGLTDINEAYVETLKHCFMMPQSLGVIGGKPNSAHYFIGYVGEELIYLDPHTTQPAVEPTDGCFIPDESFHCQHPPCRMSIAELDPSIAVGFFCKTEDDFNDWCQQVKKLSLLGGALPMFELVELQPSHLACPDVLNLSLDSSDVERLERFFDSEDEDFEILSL
UniProt Q8WWM7: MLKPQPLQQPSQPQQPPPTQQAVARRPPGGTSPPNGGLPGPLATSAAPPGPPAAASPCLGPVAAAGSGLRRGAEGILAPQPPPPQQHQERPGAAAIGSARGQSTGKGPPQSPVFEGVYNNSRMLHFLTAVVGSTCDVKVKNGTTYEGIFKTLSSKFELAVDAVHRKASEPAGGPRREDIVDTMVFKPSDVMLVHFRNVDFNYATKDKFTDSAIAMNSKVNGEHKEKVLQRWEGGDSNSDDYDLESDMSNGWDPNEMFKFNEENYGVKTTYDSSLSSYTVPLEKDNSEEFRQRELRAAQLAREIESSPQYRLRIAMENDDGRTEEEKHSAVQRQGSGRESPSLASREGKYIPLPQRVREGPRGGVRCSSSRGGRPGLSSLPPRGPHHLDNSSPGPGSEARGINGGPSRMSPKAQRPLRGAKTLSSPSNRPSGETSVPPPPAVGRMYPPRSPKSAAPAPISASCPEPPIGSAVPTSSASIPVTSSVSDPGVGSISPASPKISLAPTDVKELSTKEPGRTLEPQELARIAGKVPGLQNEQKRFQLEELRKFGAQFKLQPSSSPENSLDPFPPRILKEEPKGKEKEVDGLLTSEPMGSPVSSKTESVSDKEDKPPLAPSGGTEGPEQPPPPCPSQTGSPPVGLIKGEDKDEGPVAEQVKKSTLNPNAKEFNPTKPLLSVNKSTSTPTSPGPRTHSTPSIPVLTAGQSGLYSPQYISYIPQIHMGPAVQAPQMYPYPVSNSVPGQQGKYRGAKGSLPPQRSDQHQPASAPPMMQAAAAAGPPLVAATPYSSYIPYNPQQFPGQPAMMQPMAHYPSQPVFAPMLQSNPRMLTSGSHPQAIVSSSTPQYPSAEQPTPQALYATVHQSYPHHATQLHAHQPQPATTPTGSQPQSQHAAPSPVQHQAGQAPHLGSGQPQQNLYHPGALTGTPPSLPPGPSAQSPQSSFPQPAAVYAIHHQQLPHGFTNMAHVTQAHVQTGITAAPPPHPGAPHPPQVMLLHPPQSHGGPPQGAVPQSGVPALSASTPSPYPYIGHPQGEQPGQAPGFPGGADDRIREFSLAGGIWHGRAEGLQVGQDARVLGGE
UniProt P31939: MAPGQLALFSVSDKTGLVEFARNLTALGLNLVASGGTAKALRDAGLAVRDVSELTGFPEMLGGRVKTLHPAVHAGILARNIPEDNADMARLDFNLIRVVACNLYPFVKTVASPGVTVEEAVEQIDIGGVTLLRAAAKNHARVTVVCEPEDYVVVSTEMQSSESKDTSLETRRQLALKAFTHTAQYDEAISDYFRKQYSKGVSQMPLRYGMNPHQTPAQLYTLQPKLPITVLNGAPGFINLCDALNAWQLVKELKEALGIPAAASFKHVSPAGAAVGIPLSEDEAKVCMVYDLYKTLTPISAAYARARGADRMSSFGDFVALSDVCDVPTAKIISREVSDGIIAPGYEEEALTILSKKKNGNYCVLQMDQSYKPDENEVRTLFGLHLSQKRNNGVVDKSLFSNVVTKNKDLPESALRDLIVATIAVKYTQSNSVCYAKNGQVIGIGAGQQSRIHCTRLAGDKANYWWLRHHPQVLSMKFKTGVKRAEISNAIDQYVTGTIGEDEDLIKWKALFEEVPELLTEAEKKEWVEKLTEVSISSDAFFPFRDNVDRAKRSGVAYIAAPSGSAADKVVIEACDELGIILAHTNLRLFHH
UniProt P15313, whole entry, looked up: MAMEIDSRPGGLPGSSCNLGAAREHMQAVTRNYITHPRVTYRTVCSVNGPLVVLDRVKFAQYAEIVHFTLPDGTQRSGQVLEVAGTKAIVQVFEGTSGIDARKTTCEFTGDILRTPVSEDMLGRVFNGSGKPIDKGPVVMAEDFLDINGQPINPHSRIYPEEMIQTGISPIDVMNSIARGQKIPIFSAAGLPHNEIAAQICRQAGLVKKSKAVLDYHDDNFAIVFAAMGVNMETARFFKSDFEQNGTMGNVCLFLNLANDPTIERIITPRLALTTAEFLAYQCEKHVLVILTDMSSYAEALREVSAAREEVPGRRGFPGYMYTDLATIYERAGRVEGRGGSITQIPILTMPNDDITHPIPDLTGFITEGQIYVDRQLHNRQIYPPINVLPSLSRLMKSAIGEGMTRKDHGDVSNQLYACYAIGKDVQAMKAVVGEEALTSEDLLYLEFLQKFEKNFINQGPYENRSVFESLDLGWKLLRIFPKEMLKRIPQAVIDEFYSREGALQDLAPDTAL
UniProt Q9H1Y0: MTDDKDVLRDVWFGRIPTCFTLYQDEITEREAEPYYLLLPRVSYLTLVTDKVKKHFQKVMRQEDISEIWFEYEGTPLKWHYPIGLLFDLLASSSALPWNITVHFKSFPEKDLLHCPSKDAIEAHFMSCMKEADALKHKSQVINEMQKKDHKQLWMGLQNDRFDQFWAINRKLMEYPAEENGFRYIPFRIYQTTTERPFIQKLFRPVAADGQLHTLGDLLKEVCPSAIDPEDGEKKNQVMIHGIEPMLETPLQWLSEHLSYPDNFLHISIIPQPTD
UniProt Q8N9N2: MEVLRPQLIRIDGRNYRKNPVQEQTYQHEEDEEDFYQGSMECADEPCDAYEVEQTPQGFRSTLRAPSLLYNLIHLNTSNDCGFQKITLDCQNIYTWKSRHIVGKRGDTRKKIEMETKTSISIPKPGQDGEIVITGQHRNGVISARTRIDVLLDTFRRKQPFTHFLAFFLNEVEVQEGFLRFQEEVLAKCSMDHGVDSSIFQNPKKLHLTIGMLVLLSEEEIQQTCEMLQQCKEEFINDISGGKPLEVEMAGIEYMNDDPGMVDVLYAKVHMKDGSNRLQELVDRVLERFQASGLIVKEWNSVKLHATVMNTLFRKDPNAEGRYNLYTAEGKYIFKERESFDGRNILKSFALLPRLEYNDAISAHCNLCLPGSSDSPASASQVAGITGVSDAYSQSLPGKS

How the values were obtained:
Assay in all cases: log2 fold change, soluble protein after heating vs DMSO (PISA); higher = thermal stabilisation; K562 lysate, 10 uM; active = over 0.2 and 3.5 SD of the protein, either way, in both replicates (recomputed)
[1] = compound: CCCS(=O)(=O)Nc1ccc(F)c(C(=O)c2c[nH]c3ncc(-c4ccc(Cl)cc4)cc23)c1F [vemurafenib]
In short: (§1)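 The values are log-two fold changes in thermal stability compared with solvent controls and come from duplicates. They were obtained by TMTpro 16plex LC-MS/MS, with channel sums equalised, on the supernatant after 21,000xg for 90 min. That supernatant came from crude K562 extract at 1 mg/mL protein treated with 10 μM compound for 30 min, heated for 3 min across 48°C-58°C, pooled and brought to 0.5% NP-40 at 4°C.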

[2] = compound: CCCS(=O)(=O)Nc1ccc(F)c(C(=O)c2c[nH]c3ncc(Cl)cc23)c1F
In short: as §1

[3] = compound: CCN(CCCOc1ccc2c(Nc3cc(CC(=O)Nc4cccc(F)c4)[nH]n3)ncnc2c1)CCOP(=O)(O)O [barasertib]
In short: as §1

[4] = compound: CC[C@@H]1C(=O)N(C)c2cnc(Nc3ccc(C(=O)NC4CCN(C)CC4)cc3OC)nc2N1C1CCCC1
In short: as §1

[5] = compound: CC[C@@H]1C(=O)N(C)c2cnc(Nc3ccc(C(=O)N[C@H]4CC[C@H](N5CCN(CC6CC6)CC5)CC4)cc3OC)nc2N1C(C)C [volasertib]
In short: as §1

[6] = compound: CCn1c(C(=O)N(C2CC2)C2CC2)cc2c3c(ncn3C)c(Nc3cc(C)n(C)n3)nc21
In short: as §1

[7] = compound: CCn1cc(-c2ccnc3[nH]c(-c4cccc(CN(C)C)c4)cc23)c(-c2ccc(NC(=O)N(C)C)cc2)n1
In short: as §1

[8] = compound: CN1CCC(CNc2ccc3ncc(-c4cccc(OC(F)(F)F)c4)n3n2)CC1
In short: as §1

[9] = compound: CN1CCN(CCOc2cc(OC3CCOCC3)c3c(Nc4c(Cl)ccc5c4OCO5)ncnc3c2)CC1 [saracatinib]
In short: as §1

[10] = compound: CN1CCN(c2nc(C3=C(c4c[nH]c5ccccc45)C(=O)NC3=O)c3ccccc3n2)CC1 [sotrastaurin]
In short: as §1

[11] = compound: CN1CC[C@H](c2c(O)cc(O)c3c(=O)cc(-c4ccccc4Cl)oc23)[C@H](O)C1 [alvocidib]
In short: as §1

[12] = compound: CN1CCc2c(c3ccccc3n2Cc2ccc(C(=O)NO)cc2)C1 [Tubastatin A]
In short: as §1

[13] = compound: CNC(=O)C1=CC=CC=C1NC2=NC(=NC=C2Cl)NC3=C(C=C(C=C3)N4CCOCC4)OC
In short: as §1

[14] = compound: CNC(=O)c1ccc(Nc2ncc(C(F)(F)F)c(NCc3nccnc3N(C)S(C)(=O)=O)n2)cc1 [defactinib]
In short: as §1

[15] = compound: CNc1nc(-c2ccc3c(N)n[nH]c3c2)cc(N2C[C@@H](C(=O)NC3CCCCC3)CC[C@H]2C)n1
In short: as §1

[16] = compound: COC(=O)N[C@@H](C)CNc1nccc(-c2cn(C(C)C)nc2-c2cc(Cl)cc(NS(C)(=O)=O)c2F)n1 [encorafenib]
In short: as §1

[17] = compound: COC(=O)[C@H](CCSC)NC(=O)C1=C(C=C(C=C1)NC[C@H](CS)N)C2=CC=CC=C2
In short: as §1

[18] = compound: COc1cc(Nc2ncc3c(n2)-c2ccc(Cl)cc2C(c2c(F)cccc2OC)=NC3)ccc1C(=O)O [alisertib]
In short: as §1

[19] = compound: COc1cc2nc(-c3cc(F)ccc3O)nc(N[C@@H]3CNC[C@H]3C(C)(C)O)c2cc1OC
In short: as §1

[20] = compound: COc1cc2ncnc(Nc3ccc(F)c(Cl)c3)c2cc1OCCCN1CCOCC1 [gefitinib]
In short: as §1

Measured: log2 fold change

ATP5MG (UniProt O75964)
inactive: [1] 0.028 | [2] 0.001 | [3] 0.029 | [4] -0.005 | [5] 0.035 | [6] -0.002 | [7] -0.092 | [8] 0.014 | [9] 0.039 | [10] -0.047 | [11] -0.037 | [12] 0.021 | [13] 0.012 | [14] -0.005 | [15] 0.065 | [16] -0.032 | [17] 0.073 | [18] 0.021 | [19] 0.002 | [20] -0.02

ATG2A isoform 3 (UniProt Q2TAZ0)
inactive: [1] -0.033 | [2] 0.019 | [3] 0.045 | [4] -0.018 | [5] -0.006 | [6] 0.009 | [7] 0.056 | [8] -0.19 | [9] 0.024 | [10] 0.067 | [11] 0.025 | [12] -0.071 | [13] 0.046 | [14] 0.029 | [15] -0.006 | [16] 0.103 | [17] -0.054 | [18] 0.079 | [19] 0.055 | [20] -0.061

ATG4B (UniProt Q9Y4P1)
inactive: [1] 0.036 | [2] 0.04 | [3] 0.047 | [4] 0.012 | [5] -0.05 | [6] 0.008 | [7] 0.148 | [8] -0.105 | [9] 0.043 | [10] 0.039 | [11] 0.052 | [12] -0.129 | [13] 0.025 | [14] 0 | [15] -0.025 | [16] 0 | [17] -0.018 | [18] 0.053 | [19] 0.02 | [20] -0.071

ATXN2L isoform 3 (UniProt Q8WWM7)
inactive: [1] 0.005 | [2] -0.011 | [3] -0.015 | [4] 0.045 | [5] -0.012 | [6] 0.003 | [7] -0.047 | [8] 0.024 | [9] -0.004 | [10] 0.028 | [11] -0.006 | [12] 0.008 | [13] -0.016 | [14] -0.014 | [15] -0.012 | [16] -0.001 | [17] -0.056 | [18] -0.013 | [19] 0.01 | [20] 0.002

ATIC (UniProt P31939)
inactive: [1] 0.003 | [2] 0.006 | [3] -0.024 | [4] -0.022 | [5] -0.043 | [6] 0.009 | [7] 0.026 | [8] -0.029 | [9] -0.023 | [10] -0.031 | [11] -0.023 | [12] -0.024 | [13] 0.018 | [14] -0.018 | [15] 0.016 | [16] -0.046 | [17] 0.098 | [18] 0.041 | [19] 0 | [20] -0.03

ATP6V1B1 (UniProt P15313)
inactive: [1] -0.009 | [2] -0.013 | [3] -0.012 | [4] 0.016 | [5] 0.03 | [6] 0.006 | [8] 0.158 | [9] -0.006 | [10] 0.006 | [11] -0.118 | [12] 0.095 | [13] 0.018 | [14] -0.005 | [15] 0.031 | [16] -0.032 | [17] 0.017 | [18] 0.023 | [19] 0.009 | [20] -0.033
active: [7] -0.288

ATG5 (UniProt Q9H1Y0)
inactive: [1] 0.029 | [2] 0.022 | [3] 0.019 | [4] 0.022 | [5] 0.012 | [6] 0.007 | [7] -0.019 | [8] 0.034 | [9] 0.047 | [10] -0.031 | [11] -0.013 | [12] -0.032 | [13] 0 | [14] 0.003 | [15] 0.004 | [16] 0.011 | [17] 0.063 | [18] 0.021 | [19] 0.001 | [20] 0.008

ASCC1 isoform 2 (UniProt Q8N9N2)
inactive: [1] 0.046 | [2] -0.003 | [3] 0.04 | [4] -0.056 | [5] -0.033 | [6] 0.013 | [7] -0.087 | [8] 0.017 | [9] 0.024 | [10] 0.068 | [11] -0.006 | [12] -0.049 | [13] -0.008 | [14] 0 | [15] -0.087 | [16] -0.014 | [17] 0.05 | [18] 0.006 | [19] 0 | [20] -0.012
